The other results are listed elsewhere or left out.

Amino acid sequences for entries named in this document (tags omitted).
UniProt Q0JBA9, entry or part of it: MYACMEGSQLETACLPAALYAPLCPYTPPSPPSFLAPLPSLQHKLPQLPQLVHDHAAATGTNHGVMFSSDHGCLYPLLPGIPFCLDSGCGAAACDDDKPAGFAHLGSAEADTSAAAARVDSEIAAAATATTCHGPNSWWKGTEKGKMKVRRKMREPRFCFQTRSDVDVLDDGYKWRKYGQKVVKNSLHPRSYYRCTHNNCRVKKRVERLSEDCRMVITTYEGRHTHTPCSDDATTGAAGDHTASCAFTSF

In this experiment the target is OsWRKY34 (Oryza sativa, UniProt Q0JBA9 1-250). As to the kind of experiment: protein-binding microarray (RPBM); PBS, 2% BSA, 51.3 ng/ul salmon testes DNA, 50 uM zinc acetate, 200 nM TF, 25 C, 1 h; high values mean tight binding. To be noted: protein: recombinant; tags: N-terminal polyhistidine and DsRed monomer fusion (pET32a); label: CyDye5-dUTP incorporated in the synthesized complementary strand; 3' TTTTT single-stranded linker to array surface; dsDNA, one strand shown. An outline of the steps:
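Polyhistidine-tagged DsRed fusions of transcription factors, joined at the N-terminus, were expressed in E. coli BL21-CodonPlus and isolated on Ni–NTA. They were incubated at 200 nM for 1 h at 25 °C on a custom Agilent array, double-stranded and BSA-blocked, in PBS with 2% BSA, salmon testes DNA and 50 µM zinc acetate. The binding signal is per-feature fluorescence intensity (arbitrary units) read on an Axon 4000B scanner after washing.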
For “AGCCAGCAGCCTCATCATCGACAGCTGACCACCGTTTTGCCGGAGTCACCTAGTGCAG”, the binding signal was 8310 fluorescence intensity (a.u.).

Take “GTTATAATATTTGTCAAACAGAGGTCCAGTATTTTGCATCCGGAGTCACCTAGTGCAG”: the binding signal is 8060 fluorescence intensity (a.u.).

Consider “CCACATAATTCACATAATATTTCTATATTTATTCATCATTCGGAGTCACCTAGTGCAG”, for which the binding signal is 9250 fluorescence intensity (a.u.).

For “TGGCATGGTTCCAATTTCGTGAATAGTAATGGTATATCTCCGGAGTCACCTAGTGCAG”, the binding signal was 8290 fluorescence intensity (a.u.).

As for “CTGGTAGTTTGCTGAGCTGCTCATATATATATTCATGCTACGGAGTCACCTAGTGCAG”, the binding signal is 8470 fluorescence intensity (a.u.).

Take “AGTATCCAGCTTGCCACTGGTCCGCTTGTCAGTTGTCTCCCGGAGTCACCTAGTGCAG”: the binding signal is 8220 fluorescence intensity (a.u.).

With “ATCCGCCACTTCGCATGCACGCCATCCTCGCCTCGCCGAGCGGAGTCACCTAGTGCAG”, the binding signal is 9930 fluorescence intensity (a.u.).

As for “CAAAAGCGTCGTCCTCGTACTCCACGCGCGCATCGGAATCCGGAGTCACCTAGTGCAG”, the binding signal is 8430 fluorescence intensity (a.u.).

On to “GCAGATGCGGGCTTGTCTGATTGTTCCCTCGCACTGTTTCCGGAGTCACCTAGTGCAG”, for which the binding signal was 8580 fluorescence intensity (a.u.).

Take “AGATTTATACTATAATTATATTTGACATGTTTTTTTACCTCGGAGTCACCTAGTGCAG”: the binding signal was 9240 fluorescence intensity (a.u.).

Turning to “TCCTTTCATATTCCGCGTATATCATAGGGCCTGTTCACTTCGGAGTCACCTAGTGCAG”, the binding signal was 11200 fluorescence intensity (a.u.).

As for “AAATACTTTCCATTTTTCCATCTTGCTTGTCTCTTTTTAACGGAGTCACCTAGTGCAG”, the binding signal was 11200 fluorescence intensity (a.u.).

As to “GGGATATATCCTTTGACCGGTCAAACCTCGCGACTTCTTCCGGAGTCACCTAGTGCAG”, the binding signal is 18800 fluorescence intensity (a.u.).

With “TCTCGTTTTACGAATCTGATTCTAATTTCGCGAGGATATTCGGAGTCACCTAGTGCAG”, the binding signal was 8380 fluorescence intensity (a.u.).

As for “TGTTGTCGTCGTCCCTCTTCCTTTCCTTTCCTTTCCTTGCCGGAGTCACCTAGTGCAG”, the binding signal was 8870 fluorescence intensity (a.u.).

Take “CCGTGGGTATTTCCGTCATTTCGCGCCTAAATCTCACTCCCGGAGTCACCTAGTGCAG”: the binding signal is 11300 fluorescence intensity (a.u.).

In the case of “CAACCATTTCCCGCTATAACTACCCCACTCCACCTTCTGTCGGAGTCACCTAGTGCAG”, the binding signal is 8350 fluorescence intensity (a.u.).

Take “GGAGCTCGCCTACGACATCGAGGACTGCATAGATCTGTTCCGGAGTCACCTAGTGCAG”: the binding signal is 8230 fluorescence intensity (a.u.).

In the case of “TCTTACATTATGTTGTTGTACGCGCTTTTAGTATTACTAGCGGAGTCACCTAGTGCAG”, the binding signal is 8160 fluorescence intensity (a.u.).

As for “GGTTCGTTCGTTCGCCGCTAGTTGCCACCTTCGCCGCGGCCGGAGTCACCTAGTGCAG”, the binding signal is 15200 fluorescence intensity (a.u.).

As to “GCGGCGGTGGGTGGCGGGGCAGCAGACGAGCAAGAAAGAGCGGAGTCACCTAGTGCAG”, the binding signal was 9530 fluorescence intensity (a.u.).

Regarding “TGTTTCGCTCTAGCTCTATCCCTGCCCATGCTTCACCTAGCGGAGTCACCTAGTGCAG”, the binding signal is 8860 fluorescence intensity (a.u.).

For “GGTATTCCAAGATCTCATCCGACTTTGTTTGATCCAGCATCGGAGTCACCTAGTGCAG”, the binding signal was 11800 fluorescence intensity (a.u.).

As to “GCTACTGTTCGCGCTTTGTACTATGGTAGGTAGGGTTTTCCGGAGTCACCTAGTGCAG”, the binding signal is 8420 fluorescence intensity (a.u.).

Consider “TAACTCTGTTGACTTTTGAATGACTAGCAAAGTTAGTACTCGGAGTCACCTAGTGCAG”, for which the binding signal was 10900 fluorescence intensity (a.u.).

Regarding “TCATACGAGATGTCATCCTGTACTGTCCATGTTTGACTTCCGGAGTCACCTAGTGCAG”, the binding signal was 10600 fluorescence intensity (a.u.).

As to “CCCCGCAATATCTCCTCCATTCTTGGATTCACCTCAACCTCGGAGTCACCTAGTGCAG”, the binding signal was 8560 fluorescence intensity (a.u.).

In the case of “AAAAAAGCAGTACACGTCGTTGTCTGGACATGTTGTGCACCGGAGTCACCTAGTGCAG”, the binding signal was 8240 fluorescence intensity (a.u.).

In the case of “ATCGTCTCGTCTTCCCACCAGCACCTGCCGCGCTCTCCCCCGGAGTCACCTAGTGCAG”, the binding signal was 10200 fluorescence intensity (a.u.).

With “TATATTATGTCATATGCATTATCATATCTTTTGTGCAGACCGGAGTCACCTAGTGCAG”, the binding signal is 9250 fluorescence intensity (a.u.).

On to “CTAGTTTTGTGGTTGGAGGTTGTGAATCATACTCGGACGACGGAGTCACCTAGTGCAG”, for which the binding signal is 10200 fluorescence intensity (a.u.).

On to “CGCGTGTGTGATTGCCTTTTGCTAGCCAAATTGTGGTTTTCGGAGTCACCTAGTGCAG”, for which the binding signal was 12400 fluorescence intensity (a.u.).

Take “GTTTTTCTTTGATCTTCTCAAGTCTCGTGCAAGCAACGACCGGAGTCACCTAGTGCAG”: the binding signal is 9640 fluorescence intensity (a.u.).

On to “CCATCATTATCAAATATTTACTGTAACATCACATTATCAACGGAGTCACCTAGTGCAG”, for which the binding signal is 8320 fluorescence intensity (a.u.).

For “CCCCTTCGTCGTCTTCGTCATCGTCTCCAACCTCCGATTTCGGAGTCACCTAGTGCAG”, the binding signal is 8370 fluorescence intensity (a.u.).

For “TGACTATAATTTTGCCCTTCTAGTTTTTTTTATATATAATCGGAGTCACCTAGTGCAG”, the binding signal was 10600 fluorescence intensity (a.u.).

Turning to “GGGTCGCAAACTTCCAGATTTAACTCTCTCCATTTTGGTGCGGAGTCACCTAGTGCAG”, the binding signal was 8610 fluorescence intensity (a.u.).

Regarding “GCCATTTCCCCACGTTGATGTTGACTGTTTACTGTTTAGACGGAGTCACCTAGTGCAG”, the binding signal is 8420 fluorescence intensity (a.u.).

As for “AAGGCGGGAGGTTGAGAGAGAGATAAGGGAGAGAGAGGGGCGGAGTCACCTAGTGCAG”, the binding signal was 8120 fluorescence intensity (a.u.).

With “CCCACGTATTTTTTTTAATCTTTTTTGTTGACTAGGATGCCGGAGTCACCTAGTGCAG”, the binding signal is 8390 fluorescence intensity (a.u.).

As for “CTCTCACTCATCTCCCTGGGCAGGCTGGCCGGCGGCGGGGCGGAGTCACCTAGTGCAG”, the binding signal was 10200 fluorescence intensity (a.u.).

For the sequence “TTCCTGTTTCTTTTGTTTTTTTCTCTCTTTCACCTCCCTTCGGAGTCACCTAGTGCAG”, the binding signal was 11200 fluorescence intensity (a.u.).

(Values after PMC7819943, “Rice protein-binding microarrays: a tool to detect cis-acting elements near promoter regions in rice”.)
